This note sets out measurements from the supplement of paper PMC10735217.

Structures can show the parent of a compound that is named as a salt. The list shows a part of the results. This data set is noisy: repeats of one test often differ as much as different tests do.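 The human kidney-derived cells carry a stably integrated construct of eight TEAD-binding elements driving luciferase, read by luminescence in a drug-repurposing library screen. A compound counts as a hit when its signal is more than five robust Z scores above the plate mean.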

In the assay the test system is HEK293A TEAD-LUC reporter. In words: TEAD-luciferase reporter activity (YAP activation), robust Z score vs plate; higher = stronger YAP/TEAD activation. As to conditions: 24 h. (In general: Reporter assays use an easily measured gene product as a stand-in for the process of interest.)

Regarding `O=C(NC1CC1)C1CN(c2ccc(F)cc2)C(=O)N1` (stereo not drawn), the TEAD-luciferase reporter activity by setting is: (compound concentration: 200 nM) inactive: 1.36; (compound concentration: 10 uM) inactive: 1.64.

In the case of `NC(=O)/C=C1\CCc2c(F)cc(F)cc21`, the TEAD-luciferase reporter activity (compound concentration: 200 nM) is inactive: -0.444, the TEAD-luciferase reporter activity (compound concentration: 2 uM) is active: 5.63 and the TEAD-luciferase reporter activity (compound concentration: 10 uM) was inactive: -0.773.

With `COc1cc(C(C)=O)cc([N+](=O)[O-])c1O`, the TEAD-luciferase reporter activity runs as follows: (compound concentration: 200 nM) inactive: 0.885; (compound concentration: 2 uM) inactive: 0.616; (compound concentration: 10 uM) inactive: -1.67.

Consider `COc1cccc(C(=O)N(C)Cc2ccc(F)cc2)c1`, for which the TEAD-luciferase reporter activity is, setting by setting: (compound concentration: 200 nM) inactive: -0.579; (compound concentration: 10 uM) inactive: -0.427.

For `CC(C)(C)NCC(O)COc1ccccc1C#N` (stereo not drawn) [bunitrolol], the TEAD-luciferase reporter activity is, setting by setting: (compound concentration: 200 nM) active: 6.38; (compound concentration: 2 uM) inactive: 0.424; (compound concentration: 10 uM) inactive: 1.03.

In the case of `CCNCc1nc2c(C(=O)NC)c(Cl)cc(Cl)c2o1`, the TEAD-luciferase reporter activity by setting is: (compound concentration: 200 nM) inactive: -0.701; (compound concentration: 2 uM) inactive: -0.744; (compound concentration: 10 uM) inactive: -1.36.

Consider `COc1ccc(N2CCN(C(=O)c3ccnc4ccccc34)CC2)cc1`, for which the TEAD-luciferase reporter activity was inactive: 1.34 (compound concentration: 200 nM), inactive: -1.37 (compound concentration: 2 uM) and inactive: -1.15 (compound concentration: 10 uM).

For the compound `Cc1c(C(=O)NN2CCCCC2)nn(-c2ccc(Cl)cc2Cl)c1-c1ccc(Cl)cc1` [Rimonabant], the TEAD-luciferase reporter activity was inactive: 0.241 (compound concentration: 200 nM) and inactive: -2.04 (compound concentration: 10 uM).

`Cc1c(C(=O)NN2CCCCC2)nn(-c2ccc(Cl)cc2Cl)c1-c1ccc(Cl)cc1` [rimonabant]: the TEAD-luciferase reporter activity (compound concentration: 2 uM) is inactive: -0.114.

Regarding `CC(=O)OCC(=O)C12N=C(C)O[C@@H]1C[C@H]1C3CCC4=CC(=O)C=CC4(C)[C@@]3(F)[C@@H](O)CC12C` (stereo partly drawn), the TEAD-luciferase reporter activity by setting is: (compound concentration: 200 nM) inactive: -2.92; (compound concentration: 2 uM) inactive: 0.15; (compound concentration: 10 uM) inactive: 0.00243.

Take `CNC(=S)C1(C(=O)c2ccc(-n3ccnc3)cc2)CCC1`: the TEAD-luciferase reporter activity is inactive: -0.678 (compound concentration: 200 nM), inactive: -0.415 (compound concentration: 2 uM) and inactive: 1.81 (compound concentration: 10 uM).

Consider `N#C[C@H]1[C@H](O)[C@@H](CO)O[C@H]1n1ccc(N)nc1=O`, for which the TEAD-luciferase reporter activity is inactive: -1.74 (compound concentration: 200 nM), inactive: -0.824 (compound concentration: 2 uM) and inactive: -1.31 (compound concentration: 10 uM).

Turning to `CC(C)n1c(C2CCNCC2)nc2c([N+](=O)[O-])c(Br)c(Br)cc21`, the TEAD-luciferase reporter activity is, setting by setting: (compound concentration: 200 nM) inactive: 1.76; (compound concentration: 2 uM) inactive: 0.0812; (compound concentration: 10 uM) inactive: -0.603.

Take `N/C(=N\Nc1ccccc1)c1ccccc1`: the TEAD-luciferase reporter activity (compound concentration: 200 nM) is inactive: 0.938, the TEAD-luciferase reporter activity (compound concentration: 2 uM) is inactive: -0.328 and the TEAD-luciferase reporter activity (compound concentration: 10 uM) was inactive: 1.23.

Turning to `CCCCOc1nc(N)c2[nH]c(=O)n(CCCCCC3CCNCC3)c2n1`, the TEAD-luciferase reporter activity was inactive: -0.477 (compound concentration: 200 nM), inactive: 4.8 (compound concentration: 2 uM) and inactive: 0.219 (compound concentration: 10 uM).

In the case of `C=CCc1ccc(OCC(=O)N(CC)CC)c(OC)c1`, the TEAD-luciferase reporter activity reads like this: (compound concentration: 200 nM) inactive: -0.627; (compound concentration: 2 uM) inactive: -1.65; (compound concentration: 10 uM) inactive: 0.496.

As to `O=C([O-])CC(NC(=O)CP(=O)([O-])[O-])C(=O)[O-]` (stereo not drawn) [Sparfosic acid], the TEAD-luciferase reporter activity is inactive: -1.4 (compound concentration: 200 nM), inactive: 0.293 (compound concentration: 2 uM) and inactive: 0.0481 (compound concentration: 10 uM).

Take `CC12C=CCC1C1CC=C3C[C@@H](O)CCC3(C)C1CC2` (stereo partly drawn) [analog of aloradine]: the TEAD-luciferase reporter activity runs as follows: (compound concentration: 200 nM) inactive: -0.503; (compound concentration: 2 uM) active: 12.1; (compound concentration: 10 uM) inactive: -0.682.

With `Nc1ccc(S(=O)(=O)Nc2cnc3c(Cl)cccc3n2)cc1`, the TEAD-luciferase reporter activity runs as follows: (compound concentration: 200 nM) inactive: -0.504; (compound concentration: 10 uM) inactive: 0.171.

For `Nc1ccc(S(=O)(=O)Nc2cnc3c(Cl)cccc3n2)cc1` [chlorsulfaquinoxalone], the TEAD-luciferase reporter activity (compound concentration: 2 uM) was inactive: 0.0823.

`N[C@@H](Cc1ccc(-c2ccccc2)cc1)C(=O)NCCC(=O)O`: the TEAD-luciferase reporter activity (compound concentration: 200 nM) was inactive: -0.0318, the TEAD-luciferase reporter activity (compound concentration: 2 uM) is inactive: -0.878 and the TEAD-luciferase reporter activity (compound concentration: 10 uM) is inactive: -0.803.

In the case of `N[C@@H]1CN(c2c(F)cc3c(=O)c(C(=O)O)cn([C@@H]4C[C@@H]4F)c3c2Cl)CC12CC2` [Sitafloxacin hydrate], the TEAD-luciferase reporter activity is, setting by setting: (compound concentration: 200 nM) inactive: -0.615; (compound concentration: 2 uM) inactive: -1.61; (compound concentration: 10 uM) inactive: 0.22.

As to `COC1CC(OC2C(C)OC(OC3C(C)=CCC4CC(CC5(C=CC(C)C(C(C)C)O5)O4)OC(=O)C4C=C(C)C(O)C5OCC(=C/C=C/C3C)C45O)CC2OC)OC(C)C1NC(C)=O` (stereo not drawn), the TEAD-luciferase reporter activity was inactive: -1.22 (compound concentration: 200 nM), inactive: -2.32 (compound concentration: 2 uM) and inactive: 0.702 (compound concentration: 10 uM).

For `CC(O)CCCCn1c(=O)c2c(ncn2C)n(C)c1=O` (stereo not drawn) [Lisofylline], the TEAD-luciferase reporter activity reads like this: (compound concentration: 200 nM) inactive: 0.267; (compound concentration: 2 uM) inactive: -0.477; (compound concentration: 10 uM) inactive: -0.518.

As for `CCOC(=O)[C@H](CCc1ccccc1)N[C@@H](C)C(=O)N1Cc2ccccc2C[C@H]1C(=O)O`, the TEAD-luciferase reporter activity (compound concentration: 200 nM) is inactive: -1.45 and the TEAD-luciferase reporter activity (compound concentration: 10 uM) is inactive: -0.929.

Take `CCOC(=O)[C@H](CCc1ccccc1)N[C@@H](C)C(=O)N1Cc2ccccc2C[C@H]1C(=O)O` [quinapril hydrochloride]: the TEAD-luciferase reporter activity (compound concentration: 2 uM) is inactive: -0.927.

In the case of `C[C@@H]1OC(=O)N(C(=O)NCCCN2CCC(c3ccc(F)cc3)CC2)[C@H]1c1ccc(F)c(F)c1`, the TEAD-luciferase reporter activity (compound concentration: 200 nM) is inactive: 0.019, the TEAD-luciferase reporter activity (compound concentration: 2 uM) is inactive: -0.363 and the TEAD-luciferase reporter activity (compound concentration: 10 uM) is inactive: -0.814.

On to `N#Cc1cc(CN2CCC(Nc3ncnc4sc(Cl)cc34)CC2)ccc1F`, for which the TEAD-luciferase reporter activity runs as follows: (compound concentration: 200 nM) inactive: 0.397; (compound concentration: 2 uM) inactive: -0.644; (compound concentration: 10 uM) inactive: -0.607.
